Test results as given in PubChem BioAssay AID1471 (National Center for Advancing Translational Sciences (NCATS), 2008).
Screen size: about 230,000 compounds; about 310 (0.13%) were called active. The inconclusive results got no clear call from the source; some entries with a clear call stand among them for comparison. The call rests on the fitted dose curve; in most records, active means well fitted activation curve with a large enough effect; inconclusive means small, poorly fitted or top-dose-only effect; inactive means no such curve, though single readings can be large or run the other way. A potency beside an inconclusive call is a rough fit, not a confirmed value.

Experiment: qHTS Multiplex Assay to Identify Dual Action Probes in a Cell Model of Huntington: Cytoprotection (ATP); further: nearly all actives have a fitted effect of over 45% in size;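 on cytoprotection (ATP increase): toxic huntingtin expression switched on by the ecdysone agonist tebufenozide; % of control where 0% means no effect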
Settings: PC12 HTT-Q103 induced, ATP luminescence, 40 h; cytoprotection (ATP increase): at 56.4 µM (top of the series) unless noted
Outline: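 ATP quantification (ATPlite) reports survival of PC12 cells in which tebufenozide, 100 nM final, switches on Htt exon 1 with 103 glutamines linked to GFP; compounds are titrated.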
Potency means the concentration at half of the fitted maximal effect.

| Structure (SMILES) | cytoprotection (ATP increase) | Potency |
| --- | --- | --- |
| CC(NC(=O)CSC(=S)N(C)C)C12CC3CC(CC(C3)C1)C2 (configuration not stated) | inactive: -2.35% [at 10 µM] |  |
| CC(C)[C@@H](CC(=O)N[C@@H]1CCNC[C@H]1C(=O)N[C@H](CC(=O)N[C@@H](CCC(=O)O)CC(=O)O)Cc1c[nH]c2ccccc12)NC(=O)C[C@H](CO)NC(=O)[C@@H]1CNCC[C@H]1N |  | inconclusive: 5.62 µM [activator, single point] |
| COc1ccc(C(=O)O/N=C(\N)c2ccccn2)c(OC)c1 |  | inconclusive: 1.26 µM [activator, single point] |
| CS(=O)(=O)c1ccc(S(=O)CC(=O)Oc2ccc(Cl)cc2)c([N+](=O)[O-])c1 (configuration not stated) |  | inconclusive: 15.8 µM [activator, single point] |
| Cc1ccccc1N1C(=S)NC2c3ccccc3OC1(C)C2C(=O)N(C)C (configuration not stated) |  | inconclusive: 31.6 µM [activator, single point] |
| COC(c1ccccc1)C(C)C(OC)C(C)C(OC)C(C)C(C)=O (configuration not stated) |  | inconclusive: 6.31 µM [activator, single point] |
| Cc1nc(N2CCC(C)CC2)c2c(C)c(C(=O)O)sc2n1 | inactive: -15% [at 1.9 µM] |  |
| Cc1cc(SCCC(=O)O)nc2c(C)cccc12 |  | inconclusive: 1 µM [activator, single point] |
| O=C(NCCc1ccccc1)c1nc2c(nnn2Cc2ccccc2Cl)c(=O)[nH]1 |  | inconclusive: 0.708 µM [activator, single point] |
| CCCc1ccc(O)c(N=Cc2cc(Br)cc(OCC)c2O)c1 |  | inconclusive: 25.1 µM [activator, single point] |
| CCOC(=O)CSc1ccccn1 |  | inconclusive: 1.26 µM [activator, single point] |
| C=CCN1C(=O)C(Cc2ccc(F)cc2)S/C1=N/N=C/c1cccs1 (configuration not stated) |  | inconclusive: 2.51 µM [activator, single point] |
| O=C1C2CC=CCC2C(=O)N1Nc1ccccc1 (configuration not stated) |  | inconclusive: 0.631 µM [activator, full curve] |
| CCC(=O)Nc1ccc(C(=O)Cn2ncc(Cl)c(Cl)c2=O)cc1 | inactive: -21.8% [at 10 µM] |  |
| CSc1nnc(C)c(/C=C/Nc2ccc(F)cc2)n1 |  | inactive |
| O=C(/C=C/c1ccccc1)N1CCCC1CO (configuration not stated) |  | inconclusive: 0.1 µM [activator, single point] |
| CCC(c1nnnn1CC1CCCO1)N(CCCO)Cc1cc2cccc(C)c2[nH]c1=O (configuration not stated) |  | inactive |
| O=[N+]([O-])c1cccc(S(=O)(=O)NCCNS(=O)(=O)c2cccc([N+](=O)[O-])c2)c1 |  | inconclusive: 0.112 µM [activator, full curve, poor fit] |
| CC1CC(C)CN(C(=O)CSc2ccsc2[N+](=O)[O-])C1 (configuration not stated) |  | inconclusive: 35.5 µM [activator, single point] |
| COc1ccc(NC(=O)c2cnc(C)cn2)c2ncccc12 | inactive: -52.7% [at 10 µM] |  |
| Cc1ccc(N2CCN(CC(O)COc3ccc([N+](=O)[O-])cc3)CC2)cc1 (configuration not stated) |  | inconclusive: 1.41 µM [activator, single point] |

| Structure (SMILES) | cytoprotection (ATP increase) | Potency |
| --- | --- | --- |
| CCc1cc2ccc(C)cc2nc1SCC(=O)NNC(=O)c1ccco1 | inactive: 29.3% [at 10 µM] |  |
| Cc1ccc(NC(=O)C2C3CCCC2C3c2ccccc2)c(C)c1 (configuration not stated) |  | inconclusive: 5.62 µM [activator, single point] |
| COc1ccc(C(NC(=O)/C=C/c2ccco2)c2ccc(OC)c(OC)c2)cc1OC |  | inconclusive: 5.62 µM [activator, single point] |
| CCC(C(=O)Nc1cccc(C(=O)O)c1C)c1ccccc1 (configuration not stated) |  | inconclusive: 0.708 µM [activator, single point] |
| CN(C)C(=O)Nc1ccccc1CC[N+](=O)[O-] |  | inconclusive: 6.31 µM [activator, single point] |
| Cc1ccc(S(=O)(=O)N2CCOCC2)cc1NC(=O)CSc1nnc2cc(C)c3ccccc3n12 |  | inconclusive: 0.316 µM [activator, partial curve] |
| CCN(CC)C(=O)CC(c1ccc(F)cc1)c1ccco1 (configuration not stated) | inactive: -13.2% [at 0.074 µM] |  |
| CCOC(=O)c1ccc(NC(=S)N2CCCC(C)C2)cc1 (configuration not stated) |  | inconclusive: 2 µM [activator, partial curve] |
| OC(COc1ccc(OCC(O)CN2CCCCCC2)cc1)CN1CCCCCC1 (configuration not stated) |  | inconclusive: 0.891 µM [activator, full curve, poor fit] |
| CCOC(=O)C1=C(C)N=c2s/c(=C\c3ccncc3)c(=O)n2C1c1ccc2c(c1)OCO2 (configuration not stated) | inactive: 14.3% [at 0.074 µM] |  |
| CCc1cccc2c(C(=O)CSc3nncn3-c3ccc(OC)cc3)c[nH]c12 | inactive: -9.79% [at 10 µM] |  |
| Cc1ccnc(Sc2ccc([N+](=O)[O-])cn2)n1 |  | inconclusive: 4.47 µM [activator, single point] |
| O=C(CSCc1ccc([N+](=O)[O-])cc1)NN=C1CCCCCC1 | inactive: -21.9% [at 10 µM] |  |
| N/C(=N\OC(=O)c1ccc2c(c1)OCO2)c1ccc(Br)cc1 |  | inconclusive: 0.708 µM [activator, single point] |
| O=C(NCc1cccs1)C1CC(c2ccc(F)cc2)=NO1 (configuration not stated) |  | inconclusive: 0.316 µM [activator, partial curve] |
| COc1ccc2c(c1)O[C@@H](c1cccc(C(F)(F)F)c1)[C@H](OC(=O)NCc1ccco1)C2=O |  | inconclusive: 1.12 µM [activator, partial curve] |
| COc1ccc(C(=O)/C(Br)=C/C(=O)O)cc1 |  | inconclusive: 1.12 µM [activator, full curve, poor fit] |
| CC1CCC/C(=N\NC(=O)c2ccncc2)C1 (configuration not stated) |  | inconclusive: 1 µM [activator, single point] |
| O=C(N/N=C/c1cc(Cl)ccc1O)c1ccncc1 | inactive: -14.2% [at 10 µM] |  |
| CC(C)(C)C(=O)NC(c1ccc(Cl)cc1)[C@]1(C)C[C@H]1C1CCCCC1 (some centres not stated) |  | inconclusive: 14.1 µM [activator, single point] |
| C[C@@H]1C(=O)NC2=Nc3cccc(Cl)c3CN21 |  | inconclusive: 0.794 µM [activator, partial curve, poor fit] |

Copied from the list.
CCC(C(=O)Nc1cccc(C(=O)O)c1C)c1ccccc1 (configuration not stated) – Potency: inconclusive: 0.708 µM [activator, single point]
CCc1cc2ccc(C)cc2nc1SCC(=O)NNC(=O)c1ccco1 – cytoprotection (ATP increase): inactive: 29.3% [at 10 µM]
